Data: the supplement of paper PMC10338343
± gives the standard deviation. The entries are a selection whose mix differs from that of the whole data set. Many entries were measured with a wide error.

Each sequence was assayed on MILI (PIWIL2) piRISC loaded with piRNA #1 (26 nt) (assay: pre-steady-state target cleavage rate (min^-1); MIWI and MILI are mouse PIWI proteins and EfPiwi is from a freshwater sponge; tags in brackets are library labels; higher = faster piRNA-guided slicing of the target). Conditions: guide: piRNA #1 5'p-UGAGGUAGUAGGUUGUAUAGUAUCCA; auxiliary factor: 500 nM mouse GTSF1.
Procedure, shortened: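 Cleave-'n-Seq used a transcribed, DNA-blocked target RNA library at 0.1 nM and active affinity-purified piRISC with one synthetic guide at 1 nM, with or without 500 nM GTSF1 partner protein, in HEPES–potassium acetate buffer at 33 °C for 0–8 or 0–960 min. Uncleaved targets were sequenced and normalised to depth and to weakly complementary targets, and three trials were pooled with k3 capped at 0.0001 min^-1. The pre-steady-state cleavage rate was estimated by a burst-and-steady-state fit.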

Sequence | pre-steady-state target cleavage rate
GGAGACCUAUGAUAUGUUGCUACUACCAGA | 0.000246 ± 0.017
GGAGACCUUACUAUACAAUCUACUACCUCA | 0.127 ± 0.01
GGAGACGUUACUAUACAUCCUACUACCUCA | 0.293 ± 0.018
GGAGUGGUUACUAAACAACCUACUACCUCA | 0.161 ± 0.0092
GGAGACCUAUGAUAUGUUGGUACUACCCA | 0.000156 ± 0.034
GGAGACCUAUGAUAUCAACCUUCUAGCUCA | 0.000195 ± 0.013
GGAGACCUAUGAAUUCAACCUACUACCUGA | 0.000304 ± 0.0093
GGAGACCUAUCUAUUCAACCUACUACCUGA | 0.0654 ± 0.014
GGAGACGAUUCUAUACAACCUUCUACCUCA | 0.0216 ± 0.0072
GGAGACCUAUGAAUUCAACCUACUACCACA | 0.00146 ± 0.0038
GGAGACCAUACUAUACAACCACUACCUCA | 0.00277 ± 0.0035
GGAGACGAUACUAUAGAACCUAGUACCUCA | 0.00273 ± 0.0037
GGAGACCUAUGAUAUGAACCUACUAUCUCA | < 0.0001
GGAGACCAUACUUUACAACCUACUACCUCA | 0.168 ± 0.014
GGAGAGGAUACUAGUACAACCUACUACCUCA | 0.079 ± 0.011
GGAGACCUAUGAUAUGAACGUACUACCACA | 0.000169 ± 0.029
GGAGACGAUUCUAUACAAGCUACUACCUCA | 0.239 ± 0.01
GGAGACCUAUGAUAUCAACCUUCUUCCUCA | 0.000201 ± 0.015
GGAGAGGAUACUAUACAACCUAGAACCUCA | 0.00128 ± 0.0057
GGAGACGAUACUAUACAACCUACUAACCUCA | 0.194 ± 0.02

Sequence | pre-steady-state target cleavage rate
GGAGAGGAUACUAUACAUCCUACUACCUCA | 0.28 ± 0.023
GGAGACCUAUGAUAUGUUGGUACACCUCA | 0.000347 ± 0.014
GGAGACCUAUGAUAUGAACCAUGUACCUCA | 0.000118 ± 0.022
GGAGUGGAUUCUAAACAACCUACUACCUCA | 0.143 ± 0.0089
GGAGAGGAUACUAUACAACCUACUACCAGA | 0.0384 ± 0.0076
GGAGACGUUACAAUACAACCUACUACCUCA | 0.163 ± 0.015
GGAGACCUAUGAUAUGUACCAACUACCACA | 0.000297 ± 0.014
GGAGACCUAUGAUAACUAACCUACUACCUCA | 0.000803 ± 0.0096
GGAGACCUUACAAAACAACCUACUACCUCA | 0.00897 ± 0.0036
GGAGACCUAUCUAUACAAGCUACUACCUGA | 0.125 ± 0.019
GGAGACCUUACUAUACAAUCCUACUACCUCA | 0.000793 ± 0.0086
GGAGACCUAUGAUAUGUACCUACUAUCCUCA | 0.000151 ± 0.022
GGAGACGAUACUAUACUACCUACAACCUCA | 0.181 ± 0.017
GGAGACGAUACUAUACAUCCUACUACCACA | 0.334 ± 0.021
GGAGACCUAUGAAUUCAAGCUACUACCUCA | 0.00298 ± 0.0032
GGAGACCUAUGAUAACAACUCUACUACCUCA | 0.000133 ± 0.022
GGAGACGAUACUAUACAUCCUACAACCUCA | 0.287 ± 0.022
GGAGACCUAUGAUUUCUACCUACUACCUCA | 0.000279 ± 0.014
GGAGACGAUACUAUACAACCUUCUACCUGA | 0.00247 ± 0.0037
GGAGACCUAUCUAUAGAACCUACUACCUGA | 0.00618 ± 0.0029

Rewritten comma-delimited: part of the list above
Sequence,pre-steady-state target cleavage rate
GGAGACGUUACAAUACAACCUACUACCUCA,0.163 ± 0.015
GGAGACCUAUGAUAUGUACCAACUACCACA,0.000297 ± 0.014
GGAGACCUAUGAUAACUAACCUACUACCUCA,0.000803 ± 0.0096
GGAGACCUUACAAAACAACCUACUACCUCA,0.00897 ± 0.0036
GGAGACCUAUCUAUACAAGCUACUACCUGA,0.125 ± 0.019
GGAGACCUUACUAUACAAUCCUACUACCUCA,0.000793 ± 0.0086
GGAGACCUAUGAUAUGUACCUACUAUCCUCA,0.000151 ± 0.022
GGAGACGAUACUAUACUACCUACAACCUCA,0.181 ± 0.017
GGAGACGAUACUAUACAUCCUACUACCACA,0.334 ± 0.021
GGAGACCUAUGAAUUCAAGCUACUACCUCA,0.00298 ± 0.0032
